{
  "source": "paper PMC12030426",
  "about": "“Translational Pharmacokinetic-Pharmacodynamic Modeling of a Novel Oral Dihydroorotate Dehydrogenase (DHODH) Inhibitor, HOSU-53 (JBZ-001)” (Pharmaceutics, 2025)",
  "tested_on": "plasma DHO",
  "assay": "population PD model (indirect turnover, plasma DHO), mouse",
  "type": "in vivo",
  "conditions": "model estimate (RSE %)",
  "protocol": "To develop the PK/PD models, a sequential approach was tested for dog data, involving the initial construction of the PK model, fixing the PK parameters with population estimated thetas and eta variances, and then estimating the PD parameters. For mouse and rat data, a simultaneous approach was employed, estimating PK and PD parameters concurrently, assuming log-normal distribution for both. To account for the delay in PD response that results from the inhibition of DHODH, the factor controlling the dissipation of the response, various modeling approaches were employed. One approach involved using an effect compartment model with an equilibrium half-life parameter ( ke0 ) to characterize the delay,\nThe final PK/PD model for both species was an indirect turnover model with degradation inhibition. The parameters for the final dog and mouse PK/PD models are presented in Table 3 and Supplementary Table S3, respectively.",
  "note": "The amount applied is not stated for every result.",
  "data": [
    {"smiles": "CCCCOc1cccc(-c2ccc(-c3cc(C(=O)O)c4cc(F)ccc4n3)cc2)c1", "note": "[HOSU-53]", "values": [
      {"measurement": "R0 (baseline response, plasma DHO)", "result": "0.01 (1.4) umol/L"}
    ]}
  ]
}
